Assay results: patent US20130023541A1, “VOLTAGE-GATED SODIUM CHANNEL BLOCKERS” (Glaxo Group Limited, priority 2010, published 2013)
Where a name gives a salt, the structure may show the parent alone. Some entries share one result that the patent states for a list of compounds. For at least one compound, name, drawing or mass did not settle the structure.

By UniProt entry, the sequences of proteins in these tests, tags left out.
UniProt Q15858, whole entry: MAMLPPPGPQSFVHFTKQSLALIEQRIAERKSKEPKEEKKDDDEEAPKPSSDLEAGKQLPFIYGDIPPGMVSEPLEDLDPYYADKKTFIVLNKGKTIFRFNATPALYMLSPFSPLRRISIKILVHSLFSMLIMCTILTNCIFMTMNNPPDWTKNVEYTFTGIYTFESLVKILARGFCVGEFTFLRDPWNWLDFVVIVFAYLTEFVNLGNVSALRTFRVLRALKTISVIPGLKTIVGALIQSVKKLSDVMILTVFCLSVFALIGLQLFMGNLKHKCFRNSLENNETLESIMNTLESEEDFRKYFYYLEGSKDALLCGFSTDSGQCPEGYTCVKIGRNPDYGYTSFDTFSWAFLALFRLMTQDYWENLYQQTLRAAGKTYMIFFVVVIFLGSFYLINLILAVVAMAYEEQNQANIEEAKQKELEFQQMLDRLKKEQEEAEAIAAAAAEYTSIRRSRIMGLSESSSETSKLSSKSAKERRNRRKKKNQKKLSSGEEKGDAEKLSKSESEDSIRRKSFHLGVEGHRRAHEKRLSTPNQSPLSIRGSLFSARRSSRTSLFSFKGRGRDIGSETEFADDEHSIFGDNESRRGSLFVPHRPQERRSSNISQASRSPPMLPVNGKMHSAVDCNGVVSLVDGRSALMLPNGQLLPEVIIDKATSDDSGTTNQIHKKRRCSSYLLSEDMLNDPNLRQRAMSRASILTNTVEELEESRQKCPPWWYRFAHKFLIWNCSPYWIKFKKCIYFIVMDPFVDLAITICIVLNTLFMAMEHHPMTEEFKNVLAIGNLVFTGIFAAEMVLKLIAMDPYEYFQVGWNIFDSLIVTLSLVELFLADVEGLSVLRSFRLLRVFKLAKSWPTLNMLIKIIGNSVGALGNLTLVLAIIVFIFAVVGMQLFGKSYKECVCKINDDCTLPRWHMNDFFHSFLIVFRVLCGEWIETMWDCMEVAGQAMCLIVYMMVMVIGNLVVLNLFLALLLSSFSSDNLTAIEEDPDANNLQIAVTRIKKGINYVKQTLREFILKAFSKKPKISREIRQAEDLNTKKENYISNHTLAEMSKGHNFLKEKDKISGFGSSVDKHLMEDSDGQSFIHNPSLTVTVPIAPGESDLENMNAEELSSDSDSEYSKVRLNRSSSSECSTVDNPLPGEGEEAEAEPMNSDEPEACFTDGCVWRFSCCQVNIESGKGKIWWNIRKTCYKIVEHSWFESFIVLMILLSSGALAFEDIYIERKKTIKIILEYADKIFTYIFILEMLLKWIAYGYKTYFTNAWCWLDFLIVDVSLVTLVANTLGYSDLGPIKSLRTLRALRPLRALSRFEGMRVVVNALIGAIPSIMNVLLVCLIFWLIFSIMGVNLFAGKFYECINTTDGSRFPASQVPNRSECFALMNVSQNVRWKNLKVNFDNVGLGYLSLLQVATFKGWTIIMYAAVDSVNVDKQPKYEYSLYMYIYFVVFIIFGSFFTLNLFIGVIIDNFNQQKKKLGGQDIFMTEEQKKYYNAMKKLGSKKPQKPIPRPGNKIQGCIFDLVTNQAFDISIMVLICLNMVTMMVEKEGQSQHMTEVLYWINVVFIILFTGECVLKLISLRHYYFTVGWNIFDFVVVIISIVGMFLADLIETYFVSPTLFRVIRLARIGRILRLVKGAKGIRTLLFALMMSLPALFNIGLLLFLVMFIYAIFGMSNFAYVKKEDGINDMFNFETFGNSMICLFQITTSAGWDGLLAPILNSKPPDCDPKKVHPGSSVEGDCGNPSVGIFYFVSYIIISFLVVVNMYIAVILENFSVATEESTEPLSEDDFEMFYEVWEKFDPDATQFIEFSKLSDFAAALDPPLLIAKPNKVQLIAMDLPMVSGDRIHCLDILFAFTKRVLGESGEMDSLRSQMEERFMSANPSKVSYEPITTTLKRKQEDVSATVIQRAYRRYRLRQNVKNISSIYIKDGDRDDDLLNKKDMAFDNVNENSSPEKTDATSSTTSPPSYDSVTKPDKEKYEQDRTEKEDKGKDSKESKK

Target: NaV 1.7 (Homo sapiens, UniProt Q15858)
Assay: Use-dependent block of NaV1.7 currents, IonWorks Quattro planar array electrophysiology
Format: cell-based
Conditions: concentration producing 15% use-dependent inhibition, 10th versus 1st depolarizing pulse, 10 Hz; call rule not given here

SMILES | use-dependent pUD15 against NaV1.7
COc1cc(CN2CCN(c3ncccc3C(=O)OC(C)C)CC2)ccc1OCc1c(F)cccc1Cl [Example 328, 1-methylethyl 2-(4-{[4-{[(2-chloro-6-fluorophenyl)methyl]oxy}-3-(methyloxy)phenyl]methyl}-1-piperazinyl)-3-pyridinecarboxylate] | 5-5.99
CCN(Cc1ccc(Cl)cc1)Cc1ccc(CN2CCN(c3ncccc3C(=O)OC(C)C)CC2)cc1 [Example 498, 1-methylethyl 2-{4-[(4-{[[(4-chlorophenyl)methyl](ethyl)amino]methyl}phenyl)methyl]-1-piperazinyl}-3-pyridinecarboxylate] | 4-4.99
COc1cc(CN2CCN(c3ncccc3C(=O)OC(C)C)CC2)ccc1OCc1ccc(Cl)cc1Cl [Example 307, 1-methylethyl 2-(4-{[4-{[(2,4-dichlorophenyl)methyl]oxy}-3-(methyloxy)phenyl]methyl}-1-piperazinyl)-3-pyridinecarboxylate] | 5-5.99
COc1cccc(CN2CCN(Cc3ccc(CN4CCN(c5ncccc5C(=O)OC(C)C)CC4)cc3)CC2)c1 [Example 466] | 5-5.99
CC(C)OC(=O)c1c(-c2ccccc2)ccnc1N1CCN(Cc2ccccc2C#N)CC1 [Example 136, 1-methylethyl 2-{4-[(2-cyanophenyl)methyl]-1-piperazinyl}-4-phenyl-3-pyridinecarboxylate] | 4-4.99
CC(C)OC(=O)c1cccnc1N1CCN(Cc2ccc(Cc3ccccc3)cc2)CC1 [Example 27, 1-Methylethyl 2-(4-{[4-(phenylmethyl)phenyl]methyl}-1-piperazinyl)-3 pyridinecarboxylate hydrochloride] | 5-5.99
CC(C)OC(=O)c1cccnc1N1CCN(Cc2cccc(Nc3ccccc3C(F)(F)F)c2)CC1 [Example 112, 1-methylethyl 2-{4-[(3-{[2-(trifluoromethyl)phenyl]amino}phenyl)methyl]-1-piperazinyl}-3-pyridinecarboxylate] | 5-5.99
CC(C)OC(=O)c1cccnc1N1CCN(Cc2ccc(OCc3ccccc3)cc2O)CC1 [Example 326, 1-methylethyl 2-[4-({2-hydroxy-4-[(phenylmethyl)oxy]phenyl}methyl)-1-piperazinyl]-3-pyridinecarboxylate] | 5-5.99
CCOc1ccc(OCc2ccc(CN3CCN(c4ncccc4C(=O)OC(C)C)CC3)cc2)cc1 [Example 187, 1-methylethyl 2-(4-{[4-({[4-(ethyloxy)phenyl]oxy}methyl)phenyl]methyl}-1-piperazinyl)-3-pyridinecarboxylate] | inactive
COc1cccc(COc2cccc(CN3CCN(c4ncccc4C(=O)OC(C)C)CC3)c2)c1 [Example 22, 1-Methylethyl 2-(4-{[3-({[3-(methyloxy)phenyl]methyl}oxy)phenyl]methyl}-piperazinyl)-3-pyridinecarboxylate hydrochloride] | 5-5.99
CCOc1ncccc1CN1CCN(c2nccc(C)c2C(=O)OC(C)C)CC1 [Example 245] | 5-5.99
CC(C)OC(=O)c1cccnc1N1CCN(Cc2cccc(Oc3ccccc3)c2)CC1 [Example 347] | 5-5.99
CC(C)OC(=O)c1cccnc1N1CCN(Cc2ccc(OCc3cccc4c3OCCO4)cc2)CC1 [Example 428] | 5-5.99
Cc1ccnc(N2CCN(Cc3cccc(C#N)c3)CC2)c1C(=O)OC(C)C [Example 240] | 4-4.99
CC(C)OC(=O)c1cccnc1N(C)[C@H]1CCN(Cc2ccc(OCc3c(F)cccc3Cl)cc2)C1 [Example 393] | 5-5.99
CC(C)OC(=O)c1cccnc1N1CCN(Cc2cccc(OCc3c(F)cccc3F)c2)CC1 [Example 401] | 5-5.99
CCN(Cc1ccc(CN2CCN(c3ncccc3C(=O)OC(C)C)CC2)cc1)Cc1cccc(S(=O)(=O)N(C)C)c1 [Example 486, 1-methylethyl 2-{4-[(4-{[({3-[(dimethylamino)sulfonyl]phenyl}methyl)(ethyl)amino]methyl}phenyl)methyl]-1-piperazinyl}-3-pyridinecarboxylate] | inactive
CCOC(=O)c1cccc(Nc2ccc(CN3CCN(c4ncccc4C(=O)OC(C)C)CC3)cc2)c1 [Example 119, 1-methylethyl 2-(4-{[4-({3-(ethyloxy)carbonyl]phenyl}amino)phenyl]methyl}-1-piperazinyl)-3-pyridine carboxylate] | 5-5.99
Cc1ccnc(N2CCN(Cc3ccccc3C#N)CC2)c1C(=O)OC(C)C [Example 233] | 5-5.99
COc1ccc(COc2ccc(CN3CCN(c4ncccc4C(=O)OC(C)C)CC3)cc2)cc1 [Example 455] | 5-5.99
CC(C)OC(=O)c1cccnc1N1CCN(Cc2ccc(CN(CCCN3CCCC3=O)Cc3c(F)cccc3Cl)cc2)CC1 [Example 504, 1-methylethyl 2-(4-{[4-({[(2-chloro-6-fluorophenyl)methyl][3-(2-oxo-1-pyrrolidinyl)propyl]amino}methyl)phenyl]methyl}-1-piperazinyl)-3-pyridinecarboxylate] | 5-5.99
Cc1ccnc(N2CCN(Cc3cn(C)nc3C)CC2)c1C(=O)OC(C)C [Example 242] | 4-4.99
Cc1ccc(Oc2ccc(CN3CC[C@H](N(C)c4ncccc4C(=O)OC(C)C)C3)cc2)cc1 [Example 390] | 5-5.99

SMILES | use-dependent pUD15 against NaV1.7
Cc1ccc(COc2cccc(CN3CC[C@H](N(C)c4ncccc4C(=O)OC(C)C)C3)c2)cc1 [Example 385] | 5-5.99
CCN(C1CCN(c2cccc(Cl)c2)CC1)[C@@H]1CCN(c2nccc(C)c2C(=O)OC(C)C)C1 [Example 290, 1-methylethyl 2-{(3R)-3-[[1-(3-chlorophenyl)-4-piperidinyl](ethyl)amino]-1-pyrrolidinyl}-4-methyl-3-pyridinecarboxylate] | 5-5.99
CCN(Cc1ccc(OC)cc1)[C@@H]1CCN(c2nccc(C)c2C(=O)OC(C)C)C1 [Example 301, 1-methylethyl 2-[(3R)-3-(ethyl{[4-(methyloxy)phenyl]methyl}amino)-1-pyrrolidinyl]-4-methyl-3-pyridinecarboxylate] | inactive
Cc1ccnc(N2CCN(Cc3ccc(S(C)(=O)=O)cc3)CC2)c1C(=O)OC(C)C [Example 250] | inactive
Cc1ccnc(N2CCN(Cc3ccc(C#N)cc3)CC2)c1C(=O)OC(C)C [Example 239] | 5-5.99
Cc1ccccc1Nc1cccc(CN2CCN(c3ncccc3C(=O)OC(C)C)CC2)c1 [Example 114, 1-methylethyl 2-[4-({3-[(2-methylphenyl)amino]phenyl}methyl)-1-piperazinyl]-3-pyridinecarboxylate] | 5-5.99
CC(C)OC(=O)c1cccnc1N1CCN(Cc2ccc(OCc3cccc(N(C)C)c3)cc2)CC1 [Example 433] | 4-4.99
CCN(Cc1ccc(CN2CCN(c3ncccc3C(=O)OC(C)C)CC2)cc1)Cc1cccs1 [Example 229] | 5-5.99
CC(C)OC(=O)c1cccnc1N(C)[C@H]1CCN(Cc2cccc(OCc3ccccc3)c2)C1 [Example 376] | 5-5.99
CC(C)OC(=O)c1cccnc1N1CCN(Cc2ccc(Oc3ccccc3)cc2)CC1 [Example 366] | 5-5.99
COc1cccc(-c2ccccc2CN2CCN(c3ncccc3C(=O)OC(C)C)CC2)c1 [Example 371] | 5-5.99
CCN(Cc1ccc(OCc2ccccc2)cc1)[C@@H]1CCN(c2ncccc2C(=O)OC(C)C)C1 [Example 59, 1-methylethyl 2-{(3R)-3-[ethyl({4-[(phenylmethyl)oxy]phenyl}methyl)amino]-1-pyrrolidinyl}-3-pyridinecarboxylate] | 5-5.99
Cc1ccc(COc2cccc(CN3CCN(c4ncccc4C(=O)OC(C)C)CC3)c2)c(C)c1 [Example 411] | inactive
CCCOc1ccccc1CN(CC)[C@@H]1CCN(c2nccc(C)c2C(=O)OC(C)C)C1 [Example 296, 1-methylethyl 2-[(3R)-3-(ethyl{[2-(propyloxy)phenyl]methyl}amino)-1-pyrrolidinyl]-4-methyl-3-pyridinecarboxylate] | inactive
CC(C)OC(=O)c1cccnc1N1CCN(Cc2ccc(CNC(=O)c3ccccc3F)cc2)CC1 [Example 524, 1-methylethyl 2-(4-{[4-({[(2-fluorophenyl)carbonyl]amino}methyl)phenyl]methyl}-1-piperazinyl)-3-pyridinecarboxylate] | 5-5.99
CCOc1cccc(CN(CC)Cc2ccc(CN3CCN(c4ncccc4C(=O)OC(C)C)CC3)cc2)c1 [Example 223] | 5-5.99
CC(C)OC(=O)c1cccnc1N1CCN(Cc2ccc(CN3CCN(Cc4c(F)cccc4Cl)CC3)cc2)CC1 [Example 463, 1-methylethyl 2-(4-{[4-({4-[(2-chloro-6-fluorophenyl)methyl]-1-piperazinyl}methyl)phenyl]methyl}-1-piperazinyl)-3-pyridinecarboxylate] | 5-5.99
CC(C)OC(=O)c1cccnc1N1CCN(Cc2cccc(OCc3cccc(F)c3)c2)CC1 [Example 80] | 5-5.99
Cc1ccnc(N2CCN(Cc3ccc(F)c(C#N)c3)CC2)c1C(=O)OC(C)C [Example 241] | 4-4.99
CC(C)OC(=O)c1cccnc1N1CCN(Cc2cccc(S(=O)(=O)N(C)C)c2)CC1.Cl [Example 483, 1-Methylethyl 2-[4-({3-[(dimethylamino)sulfonyl]phenyl}methyl)-1-piperazinyl]-3-pyridinecarboxylate] | inactive
Cc1ccnc(N2CCN(Cc3cccn3-c3cccnc3)CC2)c1C(=O)OC(C)C [Example 248] | 5-5.99
Cc1ccccc1CN1CCN(c2nccc(-c3ccccc3)c2C(=O)OC(C)C)CC1 [Example 139, 1-methylethyl 2-{4-[(2-methylphenyl)methyl]-1-piperazinyl}-4-phenyl-3-pyridinecarboxylate] | 5-5.99
